Measurements reported in PubChem BioAssay AID540256 (National Center for Advancing Translational Sciences (NCATS), 2011).
About 3,700 (1.2%) of roughly 300,000 compounds were called active. The inconclusive results got no clear call from the source; some entries with a clear call stand among them for comparison. The call rests on the fitted dose curve; tested in HEK293 cells. Where the call is inconclusive, the potency comes from a doubtful curve fit.
On the % scale 0 is the no-effect control and ±100 the full control effect; potency means the concentration at half of the fitted maximal effect.

Assay: qHTS for Inhibitors of binding or entry into cells for Lassa Virus; further: nearly all actives have a fitted effect of over 50% in size
Settings: Lassa virus pseudotype entry inhibition, cell reporter; activity change, negative = inhibition: at 37.9 µM (top of the series) unless noted
For `CCn1c(CC2C(=O)N(C)c3ccc(Br)cc32)nc2ccccc2c1=O` (configuration not stated), the “activity change, negative = inhibition” value was inactive: -16.6% [at 46.1 µM]. For `O=C(/C(=C/O)N=Nc1cccc(C(F)(F)F)c1)c1ccccc1`, the Potency was inconclusive: 11.2 µM [inhibitor, partial curve, poor fit]. In the case of `Cc1cc(C)c(NC(=O)OCCN2CCOCC2)c(C)c1`, the “activity change, negative = inhibition” value is reported as inactive: -2.47%. With `NS(=O)(=O)c1ccc(CCNC(=O)c2ccco2)cc1` the “activity change, negative = inhibition” value was inactive: -2.89%. For `Cc1ccc(C(=O)NC2(C(F)(F)F)N=C(c3ccccc3)N(C3CCCCC3)C2=O)cc1` (configuration not stated), the “activity change, negative = inhibition” value was inactive: 4.41% [at 46.1 µM]. For `CCOc1ccc(/C=C/c2nc(C#N)c(NCCCOC)o2)cc1`, the Potency was inconclusive: 0.794 µM [inhibitor, full curve]. With `COc1ccc(CNC(=O)c2cn(-c3cccc(OC)c3)c(=O)c3ccccc23)cc1` the “activity change, negative = inhibition” value was inactive: -0.153% [at 46.1 µM]. With `CC(=O)Nc1ccc(SCC(=O)Nc2cc(C(C)(C)C)nn2-c2ccccc2)cc1` the “activity change, negative = inhibition” value was inactive: -0.227%. With `COc1ccc(OC)c(S(=O)(=O)NCCOC23CC4CC(CC(C4)C2)C3)c1` the Potency was inconclusive: 7.31 µM [inhibitor, partial curve, poor fit]. With `CCCCCCSc1ncc(C#N)c(N)n1` the “activity change, negative = inhibition” value was inactive: -18.5%. For `CCOC(=O)C1=C(Cc2ccc(F)cc2)C(=O)c2ccccc2C1=O`, the Potency was inconclusive: 23.1 µM [inhibitor, single point]. With `COCCN(C(=O)C1CC1)c1nnc(-c2cccc(C)c2)s1` the “activity change, negative = inhibition” value was inactive: 2.99%. For `Cc1ccc(C)c(CNC(=O)c2sc3ncnc(N(C)C4CCCCC4)c3c2C)c1`, the Potency was inconclusive: 3.55 µM [inhibitor, full curve, poor fit]. For `CCOc1ccc(NC(=O)c2cc(F)c(F)cc2Cl)cc1OCC`, the “activity change, negative = inhibition” value was inactive: 3.36%. With `Cc1ccc(-c2nnc(Nc3ccccc3)o2)cc1` the Potency was inconclusive: 5.17 µM [inhibitor, partial curve, poor fit]. With `C=CCNC(=O)CN1CCC(O)(c2ccccc2)CC1` the Potency was inconclusive: 0.146 µM [inhibitor, full curve, poor fit]. For `O=C(Cc1ccc(Br)c2ccccc12)N/N=C/c1ccccn1`, the Potency was inconclusive: 35.5 µM [inhibitor, single point]. In the case of `CCOC(=O)C1CCCN(CC(=O)Nc2c(F)c(F)c(F)c(F)c2F)C1` (configuration not stated), the “activity change, negative = inhibition” value is reported as inactive: 16.8%. In the case of `Cc1cccc(NC(=O)Cc2noc3ccccc23)c1`, the Potency is reported as inconclusive: 10.3 µM [activator, partial curve]. With `CC(Oc1ccccc1)C(=O)NNC(=O)c1ccccn1` (configuration not stated) the Potency was inconclusive: 8.91 µM [inhibitor, partial curve, poor fit]. With `CCOC(=O)CC(=O)CSc1nc2c(C)c(C)ccc2cc1C` the Potency was inconclusive: 29.1 µM [inhibitor, single point]. With `CCCCn1c(=O)nc2n(-c3ccc(F)cc3)c3ccccc3cc-2c1=O` the “activity change, negative = inhibition” value was inactive: -1.27% [at 46.1 µM]. For `CCN(c1cc(C)cc(C)c1)S(=O)(=O)c1nnc(NC(=O)C(C)C)s1`, the “activity change, negative = inhibition” value was inactive: -19.7%. In the case of `Nc1cnnc(N/N=C\c2ccccc2)c1Cl`, the “activity change, negative = inhibition” value is reported as inactive: -7.19% [at 46.1 µM]. For `COC(=O)c1sccc1NC(=O)Nc1ccc(Cl)c(Cl)c1`, the “activity change, negative = inhibition” value was inactive: -6.96%. In the case of `CC(Sc1nc2c([nH]c3ccccc32)c(=O)n1-c1ccccc1)c1ccccc1` (configuration not stated), the Potency is reported as inconclusive: 12.6 µM [inhibitor, partial curve]. With `NC(=O)C1CCN(C(=S)NCCc2ccccc2)CC1` the Potency was inconclusive: 0.631 µM [inhibitor, partial curve, poor fit]. In the case of `CC1CCN(C(=O)C(C)Sc2nc(-c3ccccc3)cc(C(F)(F)F)n2)CC1` (configuration not stated), the Potency is reported as inconclusive: 20 µM [inhibitor, single point]. For `O=C(Cn1c(=O)n2nc(-c3cccc(F)c3)nc2c2ccccc21)N1CCN(c2ccccc2F)CC1`, the “activity change, negative = inhibition” value was inactive: -0.107% [at 46.1 µM]. With `O=C(c1cccc(Cl)c1)N1CCC(c2nc3ccccc3o2)CC1` the Potency was inconclusive: 5.01 µM [inhibitor, single point]. With `O=c1[nH]c2c(cnn2-c2ccc(Cl)cc2)c(=O)n1-c1cccc(Cl)c1` the Potency was inconclusive: 1.58 µM [activator, partial curve, poor fit]. With `COc1ccc(/C=C2/SC(=O)N(CCCCCC(=O)Nc3ccccc3C(=O)O)C2=S)cc1` the Potency was active: 11.2 µM. In the case of `COc1cc(Cl)ccc1OCc1cc(C(=O)N2CCCC(OC)C2)no1` (configuration not stated), the Potency is reported as inconclusive: 35.5 µM [inhibitor, single point]. For `CCC1Oc2ccc(C)cc2N(CC(=O)N(Cc2ccc(C)o2)C2CCCC2)C1=O` (configuration not stated), the Potency was inconclusive: 10 µM [inhibitor, partial curve, poor fit]. For `Cc1ccc(CC(=O)Nc2nccs2)cc1C`, the “activity change, negative = inhibition” value was inactive: 0.599%. In the case of `CCOc1ccc(CN2CCN(Cc3c(C)nn(CC)c3C)CC2CCO)cc1` (configuration not stated), the Potency is reported as inconclusive: 2.24 µM [inhibitor, partial curve, poor fit]. For `COc1cc2c(cc1OC)CN(c1nc(CN3CCOCC3)nc3sc4c(c13)CCC(C)C4)CC2` (configuration not stated), the Potency was inconclusive: 35.5 µM [inhibitor, single point]. With `COc1cc(/C=C2\SC(=S)N(C(C(=O)O)c3ccccc3)C2=O)cc(OC)c1OC` (configuration not stated) the Potency was inconclusive: 3.55 µM [inhibitor, single point]. In the case of `O=C(NC1CCCCC1)c1cc(-c2ccccc2O)on1`, the Potency is reported as inconclusive: 25.1 µM [inhibitor, single point]. In the case of `O=C(NNC(=O)C1CCCC1)c1ccccc1F`, the Potency is reported as inconclusive: 3.16 µM [inhibitor, partial curve, poor fit]. With `O=C(Nc1ccccc1)Nc1ccc(Cl)nc1Cl` the Potency was inconclusive: 20 µM [inhibitor, partial curve, poor fit]. For `Cc1[nH]c2ccccc2c1C(=O)C(=O)N1CC=C(c2ccccc2)CC1`, the Potency was inconclusive: 18.4 µM [inhibitor, partial curve]. For `CCCN1C(=O)C2(c3ccccc31)c1c(oc3ccccc3c1=O)C(=O)N2CCCOC(C)C` (configuration not stated), the “activity change, negative = inhibition” value was inactive: 12.6% [at 46.1 µM]. In the case of `O=C(/C=C/c1ccc(O)cc1)c1ccccc1`, the “activity change, negative = inhibition” value is reported as inactive: -19.7% [at 46.1 µM]. For `O=C(O)c1ccc(C2Nc3ccccc3-c3nnc(SCc4ccc(Cl)cc4)nc3O2)cc1` (configuration not stated), the “activity change, negative = inhibition” value was inactive: -16.1% [at 46.1 µM]. With `COC(=O)COc1ccc(/C=N/NS(=O)(=O)c2ccccc2)cc1` the Potency was inconclusive: 3.16 µM [inhibitor, partial curve, poor fit]. For `Cc1ccc(C(=O)Nc2cccc(NC(=O)c3ccc(C)c([N+](=O)[O-])c3)n2)cc1[N+](=O)[O-]`, the Potency was inconclusive: 10 µM [inhibitor, partial curve, poor fit].
